{"sequences": {"note": "Sequences of proteins named here, by UniProt entry; tags and fusion partners are left off. Residues count along the entry.", "UniProt Q96EB6, 2-747 limits assumed": "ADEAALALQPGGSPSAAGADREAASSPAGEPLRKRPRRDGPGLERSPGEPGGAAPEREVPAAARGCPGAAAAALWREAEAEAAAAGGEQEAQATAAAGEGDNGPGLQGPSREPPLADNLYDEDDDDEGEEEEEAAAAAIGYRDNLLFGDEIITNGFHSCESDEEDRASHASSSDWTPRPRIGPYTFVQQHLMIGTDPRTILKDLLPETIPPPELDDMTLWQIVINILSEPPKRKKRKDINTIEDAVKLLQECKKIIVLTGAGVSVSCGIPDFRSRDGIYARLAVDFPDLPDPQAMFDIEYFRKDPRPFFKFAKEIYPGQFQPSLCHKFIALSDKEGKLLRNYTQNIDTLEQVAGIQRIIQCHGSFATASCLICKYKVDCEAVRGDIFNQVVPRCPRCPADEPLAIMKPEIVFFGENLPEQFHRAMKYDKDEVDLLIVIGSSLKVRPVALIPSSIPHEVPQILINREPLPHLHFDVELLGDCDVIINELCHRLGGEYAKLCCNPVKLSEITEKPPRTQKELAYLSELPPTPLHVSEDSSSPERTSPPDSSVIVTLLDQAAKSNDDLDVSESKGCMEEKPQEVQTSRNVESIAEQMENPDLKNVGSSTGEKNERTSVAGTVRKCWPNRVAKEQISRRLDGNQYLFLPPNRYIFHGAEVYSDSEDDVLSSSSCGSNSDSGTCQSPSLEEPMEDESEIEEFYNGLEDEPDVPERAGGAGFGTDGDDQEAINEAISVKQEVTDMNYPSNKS"}, "source": "paper PMC6925144", "about": "“A prospective compound screening contest identified broader inhibitors for Sirtuin 1” (Scientific Reports, 2019)", "note": "Whole data set: some 3,200 compounds, median “TSA(without NAD+) / Primary screening (TSA) / delta Tm (K)” near -0.07, cut for the highest 2% near 0.37. This is one part of the list."}
{"molecular_target": "NAD-dependent deacetylase Sirtuin 1 (human, UniProt Q96EB6)", "assay": "primary screen, delta tm", "parameters": "single well (n = 1)", "details": "10 µM", "method": "A total of 3,192 compounds extracted from the proposed lists were first screened by thermal shift assay (TSA), which determined a melting temperature shift (ΔTm) of Sirtuin 1 upon the addition of a test compound at a concentration of 10 µM (n = 1) with primary hit criteria of ΔTm > 0.45 K or ΔTm < −1.5 K. Primary hits (48 compounds) were retested in the same assay at three concentrations (5, 10, 20 µM, n = 4) for hit confirmation and for dose-dependency check. Secondary hits (41 compounds) were checked their selectivity for Sirtuin 1 based on counterscreening on unrelated protein targets (bovine carbonic anhydrase (CA) and recombinant SH2 domain of hABL1 kinase (ABL1)) at three different concentrations (5, 10, 20 µM, n = 4), which yielded 38 hit compounds, hereafter referred to as TSA hits. The TSA screening above was conducted in the absence of NAD+.", "units": {"TSA(without NAD+) / Primary screening (TSA) / delta Tm (K)": "K"}}
{"smiles": "COC(=O)NC(CC(C)C)C(=O)N(C)Cc1nc2ccccc2[nH]1", "note": "(stereo not drawn)", "TSA(without NAD+) / Primary screening (TSA) / delta Tm (K)": 0.02}
{"smiles": "CN(C)CCCOC1CCN(c2ncnc3ccc(S(C)(=O)=O)cc23)CC1", "TSA(without NAD+) / Primary screening (TSA) / delta Tm (K)": -0.08}
{"smiles": "c1nc(N2CCSCC2)c2[nH]cnc2n1", "TSA(without NAD+) / Primary screening (TSA) / delta Tm (K)": 0.06}
{"smiles": "O=C(O)c1ccc(OCc2cccs2)cc1", "TSA(without NAD+) / Primary screening (TSA) / delta Tm (K)": -0.03}
{"smiles": "CC(OC(=O)COc1ccc2c(c1)CCC2)C(=O)Nc1ccc(C(N)=O)cc1", "note": "(stereo not drawn)", "TSA(without NAD+) / Primary screening (TSA) / delta Tm (K)": -0.07}
{"smiles": "CN(Cc1ccc(O)cc1)C(=O)C1c2ccccc2Oc2ccccc21", "TSA(without NAD+) / Primary screening (TSA) / delta Tm (K)": -0.12}
{"smiles": "COc1cccc(C(=O)C2=C(O)C(=O)N(CCCN3CCOCC3)C2c2cccnc2)c1", "note": "(stereo not drawn)", "TSA(without NAD+) / Primary screening (TSA) / delta Tm (K)": 0.02}
{"smiles": "CC(C)c1cc(=O)oc2cc(OCc3ccc(C(N)=O)cc3)ccc12", "TSA(without NAD+) / Primary screening (TSA) / delta Tm (K)": -0.02}
{"smiles": "CN(C)c1c(Cl)cccc1NC(=O)c1ccc(Cl)nc1Cl", "TSA(without NAD+) / Primary screening (TSA) / delta Tm (K)": 0.09}
{"smiles": "Cc1c(CC(=O)O)c(=O)[nH]c2c1c(=O)[nH]n2C", "TSA(without NAD+) / Primary screening (TSA) / delta Tm (K)": -0.11}
{"smiles": "O=C1/C(=C/c2cccc(O)c2)Oc2cc(O)ccc21", "TSA(without NAD+) / Primary screening (TSA) / delta Tm (K)": -0.21}
{"smiles": "CCN(CC(=O)Nc1cc(C(N)=O)cc(C(N)=O)c1)Cc1cccc(F)c1", "TSA(without NAD+) / Primary screening (TSA) / delta Tm (K)": 0.06}
{"smiles": "Cc1ccccc1C(=O)N1CCC(C(=O)NCCc2nc3ccccc3[nH]2)CC1", "TSA(without NAD+) / Primary screening (TSA) / delta Tm (K)": 0.02}
{"smiles": "COCC(N)CO", "note": "(stereo not drawn)", "TSA(without NAD+) / Primary screening (TSA) / delta Tm (K)": -0.23}
{"smiles": "O=C(Cn1cnc2sccc2c1=O)c1ccc2c(c1)Cc1ccccc1-2", "TSA(without NAD+) / Primary screening (TSA) / delta Tm (K)": 0.12}
{"smiles": "COc1ccccc1NC(=O)COc1ccc(C(=O)OCC(=O)NCCC2=CCCCC2)cc1OC", "TSA(without NAD+) / Primary screening (TSA) / delta Tm (K)": -0.15}
{"smiles": "CN(C)C(CNC(=O)c1ccc2c(c1)OCC(=O)N2)c1ccco1", "note": "(stereo not drawn)", "TSA(without NAD+) / Primary screening (TSA) / delta Tm (K)": 0.02}
{"smiles": "CCC(CC)NCCN", "TSA(without NAD+) / Primary screening (TSA) / delta Tm (K)": -0.13}
{"smiles": "Cc1noc(C)c1C(=O)OCC(=O)Nc1ccc(C(N)=O)cc1", "TSA(without NAD+) / Primary screening (TSA) / delta Tm (K)": -0.28}
{"smiles": "CSc1ccc(NC(=O)C2CC(=O)Nc3cc(F)ccc32)cc1", "note": "(stereo not drawn)", "TSA(without NAD+) / Primary screening (TSA) / delta Tm (K)": -0.22}
{"smiles": "COC(=O)c1ccc2[nH]c(CN)nc2c1", "TSA(without NAD+) / Primary screening (TSA) / delta Tm (K)": -0.18}
{"smiles": "Cc1ccc(-c2sc(-c3ccccc3)nc2CC(=O)NNC(=O)C2COc3ccccc3O2)cc1", "note": "(stereo not drawn)", "TSA(without NAD+) / Primary screening (TSA) / delta Tm (K)": 0.06}
{"smiles": "CCC(NC)C(=O)O", "note": "(stereo not drawn)", "TSA(without NAD+) / Primary screening (TSA) / delta Tm (K)": -0.18}
{"smiles": "Cc1ccccc1CSc1nc2ccsc2c(=O)n1C", "TSA(without NAD+) / Primary screening (TSA) / delta Tm (K)": -0.24}
{"smiles": "O=C(CCc1nc2ccccc2o1)Nc1ccc(N2CCN(Cc3ccccc3)CC2)cc1", "TSA(without NAD+) / Primary screening (TSA) / delta Tm (K)": -0.08}
{"smiles": "Cc1ccc(CN(C(=O)NCc2ccco2)C2CCc3ccccc32)cc1", "note": "(stereo not drawn)", "TSA(without NAD+) / Primary screening (TSA) / delta Tm (K)": 0.17}
{"smiles": "O=C(O)C1CC(=O)N(c2ccc(S(=O)(=O)Nc3ccc4c(c3)CCC4)cc2)C1", "note": "(stereo not drawn)", "TSA(without NAD+) / Primary screening (TSA) / delta Tm (K)": -0.04}
{"smiles": "COc1ccc(C(=O)NC2CCCC2(C)CO)cc1-c1ccccn1", "note": "(stereo not drawn)", "TSA(without NAD+) / Primary screening (TSA) / delta Tm (K)": -0.14}
{"smiles": "O=C1CC(N2CCN(c3cnccn3)CC2)C(=O)N1CCc1ccccc1", "note": "(stereo not drawn)", "TSA(without NAD+) / Primary screening (TSA) / delta Tm (K)": -0.13}
{"smiles": "CCc1cc2c(N3CCCN(CC(N)=O)CC3)ncnc2s1", "TSA(without NAD+) / Primary screening (TSA) / delta Tm (K)": -0.17}
{"smiles": "Cc1cc(C(=O)COC(=O)C23CC4CC(CC(O)(C4)C2)C3)c(C)n1-c1c(C)n(C)n(-c2ccccc2)c1=O", "TSA(without NAD+) / Primary screening (TSA) / delta Tm (K)": -0.33}
{"smiles": "COc1cc(CNc2ccc3nnnn3n2)cc(OC)c1OC", "TSA(without NAD+) / Primary screening (TSA) / delta Tm (K)": -0.04}
{"smiles": "CC(C#N)(NC(=O)CNc1cccnc1-c1ccccc1)C1CC1", "note": "(stereo not drawn)", "TSA(without NAD+) / Primary screening (TSA) / delta Tm (K)": 0.08}
{"smiles": "C=CCc1c(C)c(C#N)c2nc3ccccc3n2c1Cl", "TSA(without NAD+) / Primary screening (TSA) / delta Tm (K)": -0.03}
{"smiles": "CCOc1ccc(Nc2cc(C)nc3c4c(C)cc(C)nc4nn23)cc1", "TSA(without NAD+) / Primary screening (TSA) / delta Tm (K)": -0.23}
{"smiles": "NCC(N)C1CC1", "note": "(stereo not drawn)", "TSA(without NAD+) / Primary screening (TSA) / delta Tm (K)": -0.08}
{"smiles": "COc1ccc2ccccc2c1C=C1C(=O)NC(=S)NC1=O", "TSA(without NAD+) / Primary screening (TSA) / delta Tm (K)": 0.02}
{"smiles": "O=C(CN1CCN(C(=O)c2ccccc2Nc2ccccc2)CC1)Nc1ccccc1Cl", "TSA(without NAD+) / Primary screening (TSA) / delta Tm (K)": -0.12}
{"smiles": "CC1CC1C(=O)Nc1ccc(C(=O)NCc2nc3cccnc3[nH]2)cc1", "note": "(stereo not drawn)", "TSA(without NAD+) / Primary screening (TSA) / delta Tm (K)": -0.04}
{"smiles": "NC(=O)N1CCCN(C(=O)c2ccc3c(c2)C(=O)c2ccccc2-3)CC1", "TSA(without NAD+) / Primary screening (TSA) / delta Tm (K)": -0.21}
{"smiles": "CC(C)OC(=O)CC(Nc1ccc2nnnn2n1)c1ccccc1", "note": "(stereo not drawn)", "TSA(without NAD+) / Primary screening (TSA) / delta Tm (K)": -0.07}
{"smiles": "CCC(C)c1ccc(C(NC(C)C(=O)Nc2ccc(C(N)=O)cc2)C(C)C)cc1", "note": "(stereo not drawn)", "TSA(without NAD+) / Primary screening (TSA) / delta Tm (K)": -0.18}
{"smiles": "COc1cccc(CNC(=O)COC(=O)CNC(=O)c2ccc3ccccc3c2)c1", "TSA(without NAD+) / Primary screening (TSA) / delta Tm (K)": 0.07}
{"smiles": "COC(=O)c1ccc(Cn2ncc3ccccc3c2=O)cc1", "TSA(without NAD+) / Primary screening (TSA) / delta Tm (K)": -0.05}
{"smiles": "O=C(CN1CCCC1=O)Nc1ccc2nc(S)[nH]c2c1", "TSA(without NAD+) / Primary screening (TSA) / delta Tm (K)": -0.11}
{"smiles": "CC(=O)NCc1ccc(-c2csc(NC(=O)C(C)NC(=O)c3cccs3)n2)o1", "note": "(stereo not drawn)", "TSA(without NAD+) / Primary screening (TSA) / delta Tm (K)": 0.12}
{"smiles": "CC(CN)CO", "note": "(stereo not drawn)", "TSA(without NAD+) / Primary screening (TSA) / delta Tm (K)": -0.15}
{"smiles": "CC1(c2cccc(C(N)=O)c2)NC(=O)NC1=O", "note": "(stereo not drawn)", "TSA(without NAD+) / Primary screening (TSA) / delta Tm (K)": 0.02}
